The assay has as its system L1210 leukemia ip in BDF1 mice, survival T/C. As to the kind of experiment: NCI In Vivo Anticancer Drug Screen. Data for tumor model L1210 Leukemia (intraperitoneal) in B6D2F1 (BDF1) mice. As to conditions: T/C endpoint: mean survival time, higher T/C = longer survival.
Where [1] appears, read: dose: 400.0 mg/kg/injection, schedule: Q01DX001 (ip), vehicle: carboxymethylcellulose (CMC).
The mark [2] stands for this setting: dose: 400.0 mg/kg/injection, schedule: Q01DX001 (ip), vehicle: saline.
Where [3] appears, read: dose: 100.0 mg/kg/injection, schedule: Q04DX002 (ip), vehicle: saline with Tween-80.
Where [4] appears, read: dose: 200.0 mg/kg/injection, schedule: Q04DX002 (ip), vehicle: saline with Tween-80.
Setting [5] is: dose: 400.0 mg/kg/injection, schedule: Q04DX002 (ip), vehicle: saline with Tween-80.
Where [6] appears, read: dose: 400.0 mg/kg/injection, schedule: Q01DX009 (ip), vehicle: other.
Where [7] appears, read: dose: 150.0 mg/kg/injection, schedule: Q01DX001 (ip), vehicle: saline.
[8] abbreviates: dose: 300.0 mg/kg/injection, schedule: Q01DX001 (ip), vehicle: saline.
Where [9] appears, read: dose: 50.0 mg/kg/injection, schedule: Q04DX002 (ip), vehicle: saline with Tween-80.
The mark [10] stands for this setting: dose: 100.0 mg/kg/injection, schedule: Q01DX009 (ip), vehicle: Klucel (hydroxypropylcellulose) (HPC).
[11] abbreviates: dose: 200.0 mg/kg/injection, schedule: Q04DX003 (ip), vehicle: Klucel (hydroxypropylcellulose) (HPC).
Setting [12] is: dose: 400.0 mg/kg/injection, schedule: Q04DX003 (ip), vehicle: Klucel (hydroxypropylcellulose) (HPC).

The source of these data is PubChem BioAssay AID248 (DTP/NCI, 2004).

The list is a part of this screen's results and no random one: it is rich in T/C values a quarter to a half above the control, in often repeated tests (any T/C) and in doses without a T/C. Other doses and runs of a compound stand elsewhere. T/C is the treated group as % of the vehicle group. Some entries give survivors of the animals treated and no T/C: the source files T/C as zero there, which appears to mark a toxic dose or a test without result, not a measured value. Some survivor counts are full or nearly so, which does not show that the dose was tolerated: the source hardly ever lists a survival T/C far under the control, and the zero likely stands for such cases as well. Counts of survivors are from the toxicity check (mostly the fifth day) where no day follows; animals may have died later. Schedules are NCI's codes, taken here to give the interval after Q, in days (D) or hours (H), and the number of doses after X. Some entries hold several experiments; the results are listed from low to high. For survival time, this PubChem deposit counts one and a half times the control or more as active, and values a quarter to a half above the control carry no call in these data; other NCI protocols may use other cut-offs. Some T/C values carry the count of animals alive at the toxicity check (mostly the fifth day); where none is given, no animal had died by that day.

With `Nc1cccc(-c2ccccc2)c1`, the survivor count (dose: 400.0 mg/kg/injection, schedule: Q01DX001 (ip), vehicle: Klucel (hydroxypropylcellulose) (HPC)) is listed as 0 of 6.

For `Nc1nc(N)c(N=Nc2ccccc2)c(=O)[nH]1`, the survivor count under setting [1] was 6 of 6.

In the case of `ClCCCNCc1ccc(-c2c3ccccc3cc3c2ccc2ccccc23)cc1`, the survivor count under setting [1] is listed as 0 of 4.

As for `NC1CC2C=CCC(C1)C2` (configuration not stated), under setting [2], the survivor count is 0 of 6.

With `C[CH2][Pb]([Br])([CH2]C)[CH2]C`, the survivor count is listed as 3 of 3 (dose: 50.0 mg/kg/injection, schedule: Q01DX009 (ip), vehicle: saline with Tween-80); 0 of 3 (dose: 100.0 mg/kg/injection, schedule: Q01DX009 (ip), vehicle: saline with Tween-80); 3 of 3 under setting [3]; 1 of 3 under setting [4]; 0 of 3 under setting [5].

In the case of `COc1ccc2nc(N=Nc3c(N)nc(N)nc3N)sc2c1`, under setting [2], the survivor count is 3 of 4.

As to `CC(=O)/C(=C\c1ccc(Cl)c(Cl)c1)C(=O)c1ccccc1`, the survivor count under setting [6] is 0 of 6.

Consider `CCN(CC)Cc1c(C)[nH]c2c(OC)cccc2c1=O`, for which the survivor count runs as follows: (dose: 200.0 mg/kg/injection, schedule: Q01DX009 (ip), vehicle: water) 0 of 6; (dose: 200.0 mg/kg/injection, schedule: Q04DX003 (ip), vehicle: water) 2 of 6; (dose: 300.0 mg/kg/injection, schedule: Q01DX009 (ip), vehicle: water) 0 of 6; (dose: 400.0 mg/kg/injection, schedule: Q04DX003 (ip), vehicle: water) 0 of 6.

For `O=[N+]([O-])c1ccc(NN=C2c3ccccc3Cc3ccccc32)c([N+](=O)[O-])c1`, under setting [4], the survivor count is given as 3 of 3.

As for `[O-][n+]1cc(-c2ccccc2)cc2ccccc21`, the survivor count (dose: 200.0 mg/kg/injection, schedule: Q01DX001 (ip), vehicle: saline) is 2 of 4 and the survivor count under setting [2] is listed as 0 of 4.

For `COC(=O)CCC1([N+](=O)[O-])CCCCC1`, the T/C (dose: 25.0 mg/kg/injection, schedule: Q01DX009 (ip), vehicle: saline with Tween-80) was 146 % of control.

For the molecule `[N-]=[N+]=NC(=O)C1C2CC3C(C2)C31` (configuration not stated), the survivor count under setting [1] was 4 of 4.

As for `CC1CCC(C(O)(C(=O)O)C2CCC(C)CC2)CC1` (configuration not stated), under “dose: 300.0 mg/kg/injection, schedule: Q01DX001 (ip), vehicle: other”, the survivor count is 0 of 6.

Regarding `CCP(CC)c1cccc(OC(=O)NC)c1`, the survivor count by setting is: (dose: 40.0 mg/kg/injection, schedule: Q01DX001 (ip), vehicle: saline) 0 of 6; (dose: 75.0 mg/kg/injection, schedule: Q01DX001 (ip), vehicle: saline) 0 of 6; (dose: 80.0 mg/kg/injection, schedule: Q01DX001 (ip), vehicle: saline) 0 of 6; under setting [7], 0 of 6; under setting [8], 0 of 6.

With `CCCC[S][Sn-]([CH2]CCC)([CH2]CCC)[CH2]CCC`, the survivor count is 2 of 3 under setting [9]; 0 of 3 and 1 of 3 under setting [3]; 0 of 3 under setting [4]; 0 of 3 under setting [5].

For the molecule `CCOC(=O)C(NC(=O)C(Cc1ccc(N(CCCl)CCCl)cc1)NC(C)=O)C(C)C` (configuration not stated), the T/C (dose: 60.0 mg/kg/injection, schedule: Q01DX009 (ip), vehicle: alcohol) was 130 % of control and the T/C (dose: 200.0 mg/kg/injection, schedule: Q01DX009 (ip), vehicle: saline) is 134 % of control. The survivor count runs as follows: (dose: 178.0 mg/kg/injection, schedule: Q01DX009 (ip), vehicle: alcohol) 2 of 6; (dose: 178.0 mg/kg/injection, schedule: Q01DX009 (ip), vehicle: other) 0 of 6; (dose: 267.0 mg/kg/injection, schedule: Q01DX009 (ip), vehicle: other) 1 of 6; under setting [6], 0 of 6; (dose: 600.0 mg/kg/injection, schedule: Q01DX009 (ip), vehicle: other) 0 of 6.

Take `Clc1cc(Cl)c(C[N+]23CN4CN(CN(C4)C2)C3)cc1Cl`: for the setting “dose: 400.0 mg/kg/injection, schedule: Q01DX009 (ip), vehicle: saline with Tween-80”, the survivor count is 0 of 6.

For the molecule `O=C(Nc1ccccc1Cl)Oc1c(Cl)cc(Cl)c2ccccc12`, the survivor count by setting is: under setting [10], 3 of 6; (dose: 200.0 mg/kg/injection, schedule: Q04DX002 (ip), vehicle: Klucel (hydroxypropylcellulose) (HPC)) 3 of 3; (dose: 400.0 mg/kg/injection, schedule: Q04DX002 (ip), vehicle: Klucel (hydroxypropylcellulose) (HPC)) 1 of 3.

Regarding `CC(C)(C)C[CH2][Hg][Cl]`, the survivor count is, setting by setting: (dose: 25.0 mg/kg/injection, schedule: Q04DX003 (ip), vehicle: Klucel (hydroxypropylcellulose) (HPC)) 3 of 6; (dose: 100.0 mg/kg/injection, schedule: Q04DX003 (ip), vehicle: Klucel (hydroxypropylcellulose) (HPC)) 0 of 6; under setting [11], 0 of 6; under setting [12], 1 of 6.

Take `CC(C)=CCC/C(C)=C/CNC(=O)/C=C/C(=O)O`: the survivor count (dose: 200.0 mg/kg/injection, schedule: Q04DX003 (ip), vehicle: saline with Tween-80) is given as 6 of 6.

In the case of `COc1cc(/C=C2\CCOC2=O)cc(/C=C2\CCOC2=O)c1O`, the survivor count under setting [9] is recorded as 3 of 3, the survivor count under setting [4] is reported as 3 of 3 and the survivor count under setting [5] is listed as 3 of 3.

Take `CCN(CC)CCCC#CCN1CCOCC1`: the survivor count (dose: 400.0 mg/kg/injection, schedule: Q04DX003 (ip), vehicle: saline) was 0 of 6.

For the molecule `O=S1(=O)C=C(Br)c2ccccc21`, the survivor count (dose: 400.0 mg/kg/injection, schedule: Q01DX009 (ip), vehicle: Klucel (hydroxypropylcellulose) (HPC)) is listed as 0 of 6.

For the molecule `COc1cc(N(CCCl)CCCl)c(OC)cc1/C=N\Nc1nncn1N`, the T/C by setting is: (dose: 5.0 mg/kg/injection, schedule: Q01DX015 (ip), vehicle: carboxymethylcellulose (CMC)) 120, 125, 127, 129 % of control [5 of 6 alive]; (dose: 9.0 mg/kg/injection, schedule: Q01DX015 (ip), vehicle: carboxymethylcellulose (CMC)) 130 and 132 % of control; (dose: 22.0 mg/kg/injection, schedule: Q01DX001 (ip), vehicle: carboxymethylcellulose (CMC)) 132 % of control; (dose: 50.0 mg/kg/injection, schedule: Q01DX001 (ip), vehicle: carboxymethylcellulose (CMC)) 132 [3 of 4 alive] and 149 % of control. Besides, the survivor count was 1 of 6 and 6 of 6 (dose: 25.0 mg/kg/injection, schedule: Q01DX015 (ip), vehicle: carboxymethylcellulose (CMC)); 1 of 4 (dose: 75.0 mg/kg/injection, schedule: Q01DX001 (ip), vehicle: carboxymethylcellulose (CMC)); 0 of 4 (dose: 200.0 mg/kg/injection, schedule: Q01DX001 (ip), vehicle: carboxymethylcellulose (CMC)); 0 of 4 under setting [1].

`c1ccc([P+]2(c3ccccc3)CC[P+](c3ccccc3)(c3ccccc3)CC2)cc1`: the survivor count under setting [7] was 0 of 6 and the survivor count under setting [8] is reported as 0 of 6.

For `CC1(C)CC(=O)c2c(cc(OS(C)(=O)=O)cc2OS(C)(=O)=O)O1`, the survivor count was 1 of 3 (dose: 25.0 mg/kg/injection, schedule: Q01DX009 (ip), vehicle: Klucel (hydroxypropylcellulose) (HPC)); 0 of 3 and 2 of 3 (dose: 50.0 mg/kg/injection, schedule: Q01DX009 (ip), vehicle: Klucel (hydroxypropylcellulose) (HPC)); 0 of 3 under setting [10]; 0 of 3 (dose: 200.0 mg/kg/injection, schedule: Q01DX009 (ip), vehicle: Klucel (hydroxypropylcellulose) (HPC)).

With `CC(=O)OC(OC(C)=O)c1ccc([N+](=O)[O-])o1`, the survivor count was 5 of 6 under setting [11] and 0 of 6 under setting [12].
